We go through 20 targets from the supplement of paper PMC11732987, “Enantioselective OTUD7B fragment discovery through chemoproteomics screening and high-throughput optimisation” (Communications Chemistry, 2025).

Sequences of proteins named here, by UniProt entry; tags and fusion partners are left off. A change or cut given only in a name is not applied to a line headed by its entry. Residues count along the entry.
UniProt O75665: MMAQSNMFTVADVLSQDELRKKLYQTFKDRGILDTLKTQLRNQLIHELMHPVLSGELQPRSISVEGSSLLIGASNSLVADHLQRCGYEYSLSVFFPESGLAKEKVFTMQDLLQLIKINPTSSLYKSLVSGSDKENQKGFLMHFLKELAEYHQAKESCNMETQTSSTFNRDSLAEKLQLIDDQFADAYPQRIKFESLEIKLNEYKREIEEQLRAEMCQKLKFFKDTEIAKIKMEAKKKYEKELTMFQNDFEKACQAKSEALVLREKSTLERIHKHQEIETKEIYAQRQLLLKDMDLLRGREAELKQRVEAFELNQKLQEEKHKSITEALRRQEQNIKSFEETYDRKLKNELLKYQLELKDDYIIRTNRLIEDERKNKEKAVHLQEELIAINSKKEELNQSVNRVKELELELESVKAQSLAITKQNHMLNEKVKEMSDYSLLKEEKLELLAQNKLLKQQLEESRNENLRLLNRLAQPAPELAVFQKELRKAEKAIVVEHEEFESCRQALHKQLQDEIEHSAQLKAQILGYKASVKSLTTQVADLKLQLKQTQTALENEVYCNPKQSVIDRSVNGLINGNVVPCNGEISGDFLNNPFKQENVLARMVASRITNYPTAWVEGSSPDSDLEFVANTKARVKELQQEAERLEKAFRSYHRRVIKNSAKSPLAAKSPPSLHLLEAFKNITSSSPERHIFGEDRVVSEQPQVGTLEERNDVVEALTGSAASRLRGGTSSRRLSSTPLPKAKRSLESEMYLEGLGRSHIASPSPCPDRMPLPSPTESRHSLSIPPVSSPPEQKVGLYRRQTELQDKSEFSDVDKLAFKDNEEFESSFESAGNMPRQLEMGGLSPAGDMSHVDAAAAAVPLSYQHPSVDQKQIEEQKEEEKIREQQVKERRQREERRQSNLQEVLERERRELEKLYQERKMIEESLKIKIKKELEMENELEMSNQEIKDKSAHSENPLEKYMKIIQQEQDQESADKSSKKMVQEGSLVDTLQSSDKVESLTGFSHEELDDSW
UniProt Q9UBD5: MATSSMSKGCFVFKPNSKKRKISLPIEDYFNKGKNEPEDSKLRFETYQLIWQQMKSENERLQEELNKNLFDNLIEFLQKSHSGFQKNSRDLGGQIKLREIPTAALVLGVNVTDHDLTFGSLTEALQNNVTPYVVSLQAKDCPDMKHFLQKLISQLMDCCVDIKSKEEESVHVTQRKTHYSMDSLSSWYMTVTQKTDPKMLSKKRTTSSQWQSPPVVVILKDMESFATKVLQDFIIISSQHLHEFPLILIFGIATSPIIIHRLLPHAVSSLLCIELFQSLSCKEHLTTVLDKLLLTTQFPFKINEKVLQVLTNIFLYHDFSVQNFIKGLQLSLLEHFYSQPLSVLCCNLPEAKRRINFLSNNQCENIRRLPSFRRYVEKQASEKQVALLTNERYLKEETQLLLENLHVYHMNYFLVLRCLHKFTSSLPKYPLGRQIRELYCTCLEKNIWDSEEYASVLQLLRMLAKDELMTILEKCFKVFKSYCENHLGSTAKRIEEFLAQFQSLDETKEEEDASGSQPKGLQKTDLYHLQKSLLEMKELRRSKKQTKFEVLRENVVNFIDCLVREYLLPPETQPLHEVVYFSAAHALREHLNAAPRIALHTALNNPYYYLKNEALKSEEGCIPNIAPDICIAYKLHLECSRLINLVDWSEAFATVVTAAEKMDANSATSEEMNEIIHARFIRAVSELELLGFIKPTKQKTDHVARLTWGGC
UniProt O60313: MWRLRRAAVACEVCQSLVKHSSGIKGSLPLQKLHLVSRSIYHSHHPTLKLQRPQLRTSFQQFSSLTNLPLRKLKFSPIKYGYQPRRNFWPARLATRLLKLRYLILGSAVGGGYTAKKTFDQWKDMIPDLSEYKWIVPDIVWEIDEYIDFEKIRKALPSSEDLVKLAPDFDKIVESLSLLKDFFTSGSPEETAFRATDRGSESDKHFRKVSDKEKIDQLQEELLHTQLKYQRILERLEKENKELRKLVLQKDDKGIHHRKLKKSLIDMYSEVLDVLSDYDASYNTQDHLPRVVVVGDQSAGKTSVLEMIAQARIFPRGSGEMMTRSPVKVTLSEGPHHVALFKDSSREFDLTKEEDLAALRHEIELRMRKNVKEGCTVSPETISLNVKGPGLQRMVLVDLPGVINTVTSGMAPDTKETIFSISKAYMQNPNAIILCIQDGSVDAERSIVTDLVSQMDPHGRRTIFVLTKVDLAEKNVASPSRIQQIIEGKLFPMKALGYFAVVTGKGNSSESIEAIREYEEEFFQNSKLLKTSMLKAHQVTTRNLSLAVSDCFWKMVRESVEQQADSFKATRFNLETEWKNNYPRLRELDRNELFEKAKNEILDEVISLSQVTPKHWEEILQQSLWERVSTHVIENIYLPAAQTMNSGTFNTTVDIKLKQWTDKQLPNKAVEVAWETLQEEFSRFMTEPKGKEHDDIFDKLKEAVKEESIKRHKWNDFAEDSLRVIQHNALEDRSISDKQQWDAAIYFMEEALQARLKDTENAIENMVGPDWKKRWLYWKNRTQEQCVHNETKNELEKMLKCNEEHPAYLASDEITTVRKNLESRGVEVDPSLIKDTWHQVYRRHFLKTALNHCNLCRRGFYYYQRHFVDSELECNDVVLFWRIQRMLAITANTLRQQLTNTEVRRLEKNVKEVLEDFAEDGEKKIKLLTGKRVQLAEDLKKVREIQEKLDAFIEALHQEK
UniProt O96028: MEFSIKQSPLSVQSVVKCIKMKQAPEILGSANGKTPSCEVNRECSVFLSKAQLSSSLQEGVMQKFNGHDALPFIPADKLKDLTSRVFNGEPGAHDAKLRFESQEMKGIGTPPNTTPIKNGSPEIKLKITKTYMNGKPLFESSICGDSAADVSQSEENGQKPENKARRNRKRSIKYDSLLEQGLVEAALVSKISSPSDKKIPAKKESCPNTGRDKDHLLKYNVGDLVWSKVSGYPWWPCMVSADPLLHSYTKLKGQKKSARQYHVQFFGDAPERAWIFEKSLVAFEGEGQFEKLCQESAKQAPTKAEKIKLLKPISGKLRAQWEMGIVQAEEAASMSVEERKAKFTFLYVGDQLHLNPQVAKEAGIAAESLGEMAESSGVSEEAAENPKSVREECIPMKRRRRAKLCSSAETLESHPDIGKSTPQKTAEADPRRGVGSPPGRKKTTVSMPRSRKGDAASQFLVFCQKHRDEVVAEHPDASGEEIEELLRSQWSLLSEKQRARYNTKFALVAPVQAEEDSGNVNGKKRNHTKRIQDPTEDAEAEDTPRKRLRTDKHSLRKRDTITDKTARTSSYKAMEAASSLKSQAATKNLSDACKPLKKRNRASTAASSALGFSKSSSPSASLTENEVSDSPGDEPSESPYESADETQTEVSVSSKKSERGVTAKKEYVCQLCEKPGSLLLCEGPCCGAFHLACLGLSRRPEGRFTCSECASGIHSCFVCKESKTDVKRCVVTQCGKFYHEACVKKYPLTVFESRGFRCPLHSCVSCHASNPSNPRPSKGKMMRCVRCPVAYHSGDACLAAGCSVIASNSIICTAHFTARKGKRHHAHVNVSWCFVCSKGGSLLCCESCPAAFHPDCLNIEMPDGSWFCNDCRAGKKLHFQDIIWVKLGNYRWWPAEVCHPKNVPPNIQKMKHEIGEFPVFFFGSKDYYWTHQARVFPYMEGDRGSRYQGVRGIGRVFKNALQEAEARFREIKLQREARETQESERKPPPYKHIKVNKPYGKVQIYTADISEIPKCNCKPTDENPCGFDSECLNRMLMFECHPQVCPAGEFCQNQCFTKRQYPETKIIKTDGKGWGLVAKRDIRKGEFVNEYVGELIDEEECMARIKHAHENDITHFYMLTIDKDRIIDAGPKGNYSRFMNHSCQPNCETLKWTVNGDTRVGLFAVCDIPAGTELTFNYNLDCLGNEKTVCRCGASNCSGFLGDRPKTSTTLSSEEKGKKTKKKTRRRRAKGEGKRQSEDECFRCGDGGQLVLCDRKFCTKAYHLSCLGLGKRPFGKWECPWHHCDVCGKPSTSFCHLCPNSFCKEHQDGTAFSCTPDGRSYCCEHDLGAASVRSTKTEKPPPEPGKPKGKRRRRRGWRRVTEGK
UniProt Q9Y6R0: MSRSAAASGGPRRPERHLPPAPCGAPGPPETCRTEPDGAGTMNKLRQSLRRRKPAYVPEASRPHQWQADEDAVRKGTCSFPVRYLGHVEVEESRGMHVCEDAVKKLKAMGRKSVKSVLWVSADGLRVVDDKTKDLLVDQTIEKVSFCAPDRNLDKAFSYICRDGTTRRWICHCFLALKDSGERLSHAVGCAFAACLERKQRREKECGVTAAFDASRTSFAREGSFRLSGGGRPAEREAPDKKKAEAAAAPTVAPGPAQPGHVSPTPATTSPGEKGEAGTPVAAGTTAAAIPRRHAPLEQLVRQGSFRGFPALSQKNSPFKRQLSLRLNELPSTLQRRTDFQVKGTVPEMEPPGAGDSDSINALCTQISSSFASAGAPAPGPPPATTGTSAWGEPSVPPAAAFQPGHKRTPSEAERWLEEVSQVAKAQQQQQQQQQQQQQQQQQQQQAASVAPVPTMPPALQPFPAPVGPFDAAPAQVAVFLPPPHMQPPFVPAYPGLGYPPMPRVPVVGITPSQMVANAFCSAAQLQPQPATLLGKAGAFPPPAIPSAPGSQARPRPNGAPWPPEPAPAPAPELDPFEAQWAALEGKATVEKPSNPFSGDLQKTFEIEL
UniProt Q9H4B0, 38-74: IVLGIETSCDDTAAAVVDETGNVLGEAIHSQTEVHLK
UniProt Q96P11: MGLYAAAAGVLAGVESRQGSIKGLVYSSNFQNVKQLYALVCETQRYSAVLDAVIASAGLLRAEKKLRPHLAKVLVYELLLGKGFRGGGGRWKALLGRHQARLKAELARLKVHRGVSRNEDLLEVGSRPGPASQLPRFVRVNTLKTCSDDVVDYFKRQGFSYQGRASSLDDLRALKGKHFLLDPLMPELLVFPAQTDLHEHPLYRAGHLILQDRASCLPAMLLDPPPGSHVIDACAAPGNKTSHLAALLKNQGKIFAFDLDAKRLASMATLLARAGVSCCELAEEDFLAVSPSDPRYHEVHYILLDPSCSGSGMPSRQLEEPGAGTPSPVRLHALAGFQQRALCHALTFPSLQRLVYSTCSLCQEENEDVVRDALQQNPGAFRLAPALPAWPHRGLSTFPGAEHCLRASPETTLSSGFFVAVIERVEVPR
UniProt Q9BXB5: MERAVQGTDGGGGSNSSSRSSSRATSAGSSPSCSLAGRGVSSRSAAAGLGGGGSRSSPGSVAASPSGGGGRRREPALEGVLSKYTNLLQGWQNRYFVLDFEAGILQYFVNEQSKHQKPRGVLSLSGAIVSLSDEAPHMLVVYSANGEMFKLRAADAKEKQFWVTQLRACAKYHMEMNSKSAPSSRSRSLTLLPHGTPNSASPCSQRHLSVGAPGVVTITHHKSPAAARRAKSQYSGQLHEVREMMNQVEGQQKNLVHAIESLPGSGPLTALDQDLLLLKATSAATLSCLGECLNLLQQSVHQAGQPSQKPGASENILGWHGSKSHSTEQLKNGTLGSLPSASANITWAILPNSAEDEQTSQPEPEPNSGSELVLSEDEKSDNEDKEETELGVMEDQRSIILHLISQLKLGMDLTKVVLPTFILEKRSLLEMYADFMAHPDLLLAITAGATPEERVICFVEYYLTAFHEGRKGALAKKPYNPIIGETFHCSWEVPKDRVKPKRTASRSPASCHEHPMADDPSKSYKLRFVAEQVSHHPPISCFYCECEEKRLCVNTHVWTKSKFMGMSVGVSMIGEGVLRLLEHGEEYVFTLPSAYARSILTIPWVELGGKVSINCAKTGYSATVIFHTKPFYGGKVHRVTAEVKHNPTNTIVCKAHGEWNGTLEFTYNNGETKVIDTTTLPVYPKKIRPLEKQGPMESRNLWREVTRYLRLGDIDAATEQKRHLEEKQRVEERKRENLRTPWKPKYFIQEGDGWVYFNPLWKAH
UniProt P61970: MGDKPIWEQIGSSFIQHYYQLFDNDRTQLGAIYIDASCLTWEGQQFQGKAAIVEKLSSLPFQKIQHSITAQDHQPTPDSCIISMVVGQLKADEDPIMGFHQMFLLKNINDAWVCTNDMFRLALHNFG
UniProt Q96CV9: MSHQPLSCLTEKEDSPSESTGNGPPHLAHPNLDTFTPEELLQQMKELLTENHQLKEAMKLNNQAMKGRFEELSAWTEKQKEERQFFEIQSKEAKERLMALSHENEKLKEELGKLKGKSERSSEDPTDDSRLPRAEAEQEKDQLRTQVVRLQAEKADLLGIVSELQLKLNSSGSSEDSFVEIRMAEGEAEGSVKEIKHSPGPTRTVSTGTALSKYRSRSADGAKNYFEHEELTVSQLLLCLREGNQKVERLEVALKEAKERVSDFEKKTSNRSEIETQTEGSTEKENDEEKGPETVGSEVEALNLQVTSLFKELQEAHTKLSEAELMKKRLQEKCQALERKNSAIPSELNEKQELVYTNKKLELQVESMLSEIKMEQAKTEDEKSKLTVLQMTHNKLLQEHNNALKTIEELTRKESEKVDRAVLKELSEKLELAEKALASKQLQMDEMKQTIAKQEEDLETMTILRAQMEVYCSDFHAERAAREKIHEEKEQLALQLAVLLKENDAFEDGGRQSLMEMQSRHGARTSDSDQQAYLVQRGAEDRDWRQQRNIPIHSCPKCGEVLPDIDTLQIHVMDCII

The list shows a part of the results. The data scatter; read single values as rough.

Compound in one assay: ClCC(=O)N[C@@H]1CCCc2ccccc12
The experiment in a line: log2 mean competition ratio of IA-DTB cysteine labelling (DMSO/compound) (log2 ratio); higher = stronger cysteine engagement by compound. The conditions noted are these: 50 µM; treatment time: 4 h; cell line lysate: HEK293T. As to the method: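 IA-DTB competitive cysteine chemoproteomics in HEK293T RIPA lysate. Lysates were treated with compound 29 or 30 at 50 or 200 µM for 4 h, then IA-DTB (500 µM, 1 h), trypsin-digested, NeutrAvidin-enriched and analysed by diaPASEF. Competition ratio = intensity DMSO / intensity compound (n=4 treated, n=64 DMSO); binding: mean log2 CR ≥ 1 and p ≤ 0.05 plus QC filters. Target is the cysteine site.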
For OFD1 C503 (UniProt O75665), the “log2 mean competition ratio” value stood at 0.351.
The same measure, in the same setting: the same measure for NUMB C176 (UniProt P49757): -0.0933.
With NSRP1 C232 (UniProt Q9H0G5), the “log2 mean competition ratio” value is -0.027.
As for ORC3 C639 (UniProt Q9UBD5), the “log2 mean competition ratio” value was -0.0799.
On to OPA1 C786 (UniProt O60313), for which the “log2 mean competition ratio” value was -0.0519.
For NPM3 C79 (UniProt O75607), the “log2 mean competition ratio” value was -0.0447.
For NSD2 C207 (UniProt O96028), the “log2 mean competition ratio” value is -0.0823.
For the target NUMBL C99 (UniProt Q9Y6R0), the “log2 mean competition ratio” value is -0.288.
Take NPAT C1172 (UniProt Q14207): the “log2 mean competition ratio” value was -0.125.
On to NSD3 C1292 (UniProt Q9BZ95), for which the “log2 mean competition ratio” value was -0.0271.
Same read-out and setting: with NUP98 C1347 (UniProt P52948) the figure was 0.0795; with NR2F2 C115 (UniProt P24468), 0.179.
The same measure, in the same setting: with OSGEPL1 C46 (UniProt Q9H4B0) the figure was -0.0998; with NVL C484 (UniProt O15381), 0.12.
On the same count and under the same terms, with NSUN5 C146 (UniProt Q96P11) the figure was 0.217; with ORC5 C409 (UniProt O43913), 0.365; with OCRL C811 (UniProt Q01968), -0.0206.
For the target OSBPL10 C33 (UniProt Q9BXB5), the “log2 mean competition ratio” value was determined as 0.16.
Still for that read-out and setting: the same measure for NUTF2 C114 (UniProt P61970): 0.0166; for OPTN C472 (UniProt Q96CV9): -0.2.

The same assay, now with this note: 200 µM; treatment time: 4 h; cell line lysate: HEK293T.
OFD1 C503 (UniProt O75665): the “log2 mean competition ratio” value is 0.453.
For the target NUMB C176 (UniProt P49757), the “log2 mean competition ratio” value is -0.163.
Consider NSRP1 C232 (UniProt Q9H0G5), for which the “log2 mean competition ratio” value was -0.437.
For ORC3 C639 (UniProt Q9UBD5), the “log2 mean competition ratio” value was -0.0462.
The same measure, in the same setting: with OPA1 C786 (UniProt O60313) the figure was 0.141.
NPM3 C79 (UniProt O75607): the “log2 mean competition ratio” value is -0.157.
For NSD2 C207 (UniProt O96028), the “log2 mean competition ratio” value was -0.137.
Consider NUMBL C99 (UniProt Q9Y6R0), for which the “log2 mean competition ratio” value stood at 0.0144.
For the target NPAT C1172 (UniProt Q14207), the “log2 mean competition ratio” value was -0.0108.
With NSD3 C1292 (UniProt Q9BZ95), the “log2 mean competition ratio” value was -0.144.
For NUP98 C1347 (UniProt P52948), the “log2 mean competition ratio” value was -0.228.
The same measure, in the same setting: the same measure for NR2F2 C115 (UniProt P24468): -0.0521.
Turning to OSGEPL1 C46 (UniProt Q9H4B0), the “log2 mean competition ratio” value is -0.225.
For NVL C484 (UniProt O15381), the “log2 mean competition ratio” value was 0.0974.
Same read-out and setting: with NSUN5 C146 (UniProt Q96P11) the figure was 0.125.
On the same count and under the same terms, the same measure for ORC5 C409 (UniProt O43913): 0.357; for OCRL C811 (UniProt Q01968): 0.411; for OSBPL10 C33 (UniProt Q9BXB5): 0.276.
Consider NUTF2 C114 (UniProt P61970), for which the “log2 mean competition ratio” value is -0.27.
For the target OPTN C472 (UniProt Q96CV9), the “log2 mean competition ratio” value was -0.000861.
